Data: patent US11883400B2, “Treatment of portal hypertension and cirrhosis” (Noorik Biopharmaceuticals AG, priority 2018, dated 2024)
Where two headings read alike, the source gives them in different places. At least one structure is not confirmed: it was looked up by name or label, or the drawing left a doubt.

Key:
[1] = system: adult subjects with a history of cirrhosis and portal hypertension; test: Clinical study NCT03827200: portal pressure estimated by Hepatic Venous Pressure Gradient (HVPG); format: in vivo, human
Procedure: In the context of a clinical study (ClinicalTrials.gov Identifier: NCT03827200), ambrisentan was administered to 8 adult subjects with a history of cirrhosis and portal hypertension. […] A liquid formulation of ambrisentan was used, consisting of a solution of propylene glycol:ethanol (50:50 w/w) and ambrisentan at a concentration of 5 mg/mL. The solution was reconstituted prior to administration in water or propylene glycol. All subjects were treated for 14 days. Portal pressure was estimated in this study by means of the Hepatic Vein Pressure Gradient (HVPG), the current gold standard to evaluate the degree of portal hypertension in adults with cirrhosis (as described in Bosch, J., Abraldes, J. G., Berzigotti, A., & Garcia-Pagan, J. C. (2009). The clinical use of HVPG measurements in chronic liver disease. Nature Reviews Gastroenterology & Hepatology, 6(10), 573-582). HVPG was measured at baseline and prior to the first administration of ambrisentan. Post-baseline values for HVPG were obtained at 90 minutes following the administration of the first dose of ambrisentan. After 14 days of treatment, HVPG was determined at trough (prior to the last dose) and 90 minutes following the last dose of ambrisentan. Two dose groups were evaluated in this study. In the high dose group, 4 subjects were administered 50 μg ambrisentan on day 1 subcutaneously, followed by 100 μg of ambrisentan twice a day orally for 13 days, for a total daily dose of 200 μg. On day 14, subjects in the high dose group received a final dose of 50 μg ambrisentan subcutaneously. In the low dose group, 4 subjects were administered 10 μg ambrisentan on day 1 subcutaneously, followed by 14 μg of ambrisentan once a day orally for 13 days. On day 14, subjects in the low dose group received a final dose of 10 μg ambrisentan subcutaneously.
All subjects had portal hypertension as determined by HVPG at baseline (mean 19.7 mmHg, range 9-29 mmHg). […] An initial decrease in HVPG was apparent at 90 minutes post-administration in the low-dose group, and the reduction in HVPG was even larger at day 14 when compared to day 1 (Table 2).

patients with cirrhosis = details: acute, cited from earlier work
[2] = system: patients with portopulmonary hypertension; details: in vivo; cited from earlier work

COC(c1ccccc1)(c1ccccc1)[C@H](Oc1nc(C)cc(C)n1)C(=O)O [ambrisentan]
Effect on portal pressure ([1]; ambrisentan concentrations in plasma above 10 ng/mL): increase in portal pressure | Effect on portal pressure ([1]; ambrisentan concentrations in plasma below 10 ng/mL): effective in reducing portal pressure | Direction of HVPG change throughout the study ([1]; high-dose group (50 μg s.c. day 1 and 14, 100 μg twice a day orally 13 days)): increase in HVPG | Direction of portal pressure change as determined by HVPG ([1]; low-dose group (10 μg s.c. day 1 and 14, 14 μg once a day orally 13 days)): decrease in portal pressure | Reduction of portal pressure as determined by HVPG (patients with cirrhosis; 5 mg orally): 4.8% | Reduction of portal pressure as determined by HVPG (patients with cirrhosis; 10 mg orally): 7% | Effect in treating patients with portopulmonary hypertension [2]: beneficial effect
